Laboratory results reported in paper doi:10.1101/2025.02.21.638496.

Assays:
Assay in all cases: affinity purification with mass spectrometry
[1] = molecular target: T1, RNase J with a C-terminal 3×FLAG tag (Synechocystis sp. PCC 6803) (UniProt P54123)
T1 sequence: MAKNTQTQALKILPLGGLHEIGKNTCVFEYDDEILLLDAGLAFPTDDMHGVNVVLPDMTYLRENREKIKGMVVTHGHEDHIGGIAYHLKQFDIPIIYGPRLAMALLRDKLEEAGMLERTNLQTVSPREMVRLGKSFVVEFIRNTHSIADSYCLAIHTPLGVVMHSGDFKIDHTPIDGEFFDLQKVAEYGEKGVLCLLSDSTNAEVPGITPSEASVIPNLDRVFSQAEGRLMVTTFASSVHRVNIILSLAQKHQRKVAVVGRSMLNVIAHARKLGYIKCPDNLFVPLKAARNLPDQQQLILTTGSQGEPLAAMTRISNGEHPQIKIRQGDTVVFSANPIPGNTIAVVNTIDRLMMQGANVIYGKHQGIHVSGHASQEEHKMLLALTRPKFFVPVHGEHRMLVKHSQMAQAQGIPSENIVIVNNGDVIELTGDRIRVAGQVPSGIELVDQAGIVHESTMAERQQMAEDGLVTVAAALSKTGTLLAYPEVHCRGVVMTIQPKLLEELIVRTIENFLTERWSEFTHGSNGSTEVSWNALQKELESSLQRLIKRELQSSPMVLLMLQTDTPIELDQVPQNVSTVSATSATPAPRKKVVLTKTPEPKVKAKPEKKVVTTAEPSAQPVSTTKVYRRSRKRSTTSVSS

[2] = molecular target: T2, RNase J with an N-terminal 3×FLAG tag (Synechocystis sp. PCC 6803) (UniProt P54123)
T2 sequence: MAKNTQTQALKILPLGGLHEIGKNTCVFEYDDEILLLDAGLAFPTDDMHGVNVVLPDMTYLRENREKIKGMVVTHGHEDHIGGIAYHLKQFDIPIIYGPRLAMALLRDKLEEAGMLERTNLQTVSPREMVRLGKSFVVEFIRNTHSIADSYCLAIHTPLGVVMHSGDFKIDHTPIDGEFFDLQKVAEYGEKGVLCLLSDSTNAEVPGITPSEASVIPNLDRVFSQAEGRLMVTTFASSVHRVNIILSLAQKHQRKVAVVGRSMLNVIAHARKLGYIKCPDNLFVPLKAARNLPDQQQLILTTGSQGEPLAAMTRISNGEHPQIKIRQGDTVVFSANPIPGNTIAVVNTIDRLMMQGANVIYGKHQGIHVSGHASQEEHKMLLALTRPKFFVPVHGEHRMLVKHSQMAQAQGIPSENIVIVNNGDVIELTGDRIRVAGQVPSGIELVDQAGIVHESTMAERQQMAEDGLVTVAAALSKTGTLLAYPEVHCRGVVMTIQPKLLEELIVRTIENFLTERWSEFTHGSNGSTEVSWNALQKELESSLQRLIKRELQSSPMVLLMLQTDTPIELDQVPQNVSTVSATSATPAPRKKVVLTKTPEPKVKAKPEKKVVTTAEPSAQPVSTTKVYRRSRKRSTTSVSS

[3] = molecular target: T1, RNase J with a C-terminal 3×FLAG tag (Synechocystis sp. PCC 6803); remark: listed apart in the source
[4] = molecular target: T2, RNase J with an N-terminal 3×FLAG tag (Synechocystis sp. PCC 6803); remark: listed apart in the source

Molecule: Slr0552
- binding [1]: binds
- binding [2]: binds

Molecule: Slr1102
- binding [2]: binds

Molecule: bifunctional nuclease domain protein Sll1142 (from UniProt P73466)
- binding [1]: binds

Molecule: pyruvate kinase (enzyme)
- binding [2]: binds

B1: PNPase (polyribonucleotide nucleotidyltransferase) (enzyme, UniProt P72659 1-718)
chain: MQEFDKSISFDGRDIRLKMGTLAPQAGGSVLIQSGDTAVLVTATRAKGRDGIDFLPLTVDYEGRLYAAGRIPGGFLRREGRPPEKATLISRLIDRPLRPLFPHWLRDELQIVATTLSMDEEVPPDVLAVTGASVAVILAQIPFKGPMAAVRVGLVGDDFIINPTYREVHNGDLDLVVAGTPAGIVMVEAGANQLPEQDIIEAIDFGYEAVQDLINAQRELMTDLGITLATSEPPPVNTAVEEFIANRASKKIITVLGQFDLGKDGRDAALDEIKATEVETAIAELPETDPVKQSVEEDPKLVGNLYKALTKKLMRKQIVDDGVRVDGRKLEQVRPISCEVGFLPRRVHGSGLFNRGLTQVLSLATLGSPGDAQDLADDLHPEDEKRYLHHYNFPPYSVGEARPMRSPGRREIGHGALAERAIIPVLPPQEDFPYVVRVVSEVLSSNGSTSMGSVCGSTLALMDAGVPIKKPVSGAAMGLIKEGDEIRILTDIQGIEDFLGDMDFKVAGTDSGITALQMDMKIDGLSMEVVSKAIMQALPARLHILDKMLATIREPRPELSPFAPRLLTLKIEPEHIGMVIGPGGKTIKGITEQTSCKIDIADDGTVTIASSEGERAERARQMIYNMTRKLNEGEVYLGRVTRIIPIGAFVEVLPGKEGMIHISQLTEGRVGKVEDEVGVGDEVIVKVREIDSKGRLNLTRLGIHPDEAAEARRNASRG
- binding [3]: binds
- binding [4]: binds

B2: TrxA (protein, UniProt P52231 1-107)
chain: MSATPQVSDASFKEDVLDSELPVLVDFWAPWCGPCRMVAPVVDEISQQYEGKVKVVKLNTDENPNTASQYGIRSIPTLMIFKGGQRVDMVVGAVPKTTLASTLEKYL
- binding [3]: binds

B3: RNase E (enzyme, UniProt P72656 1-674)
chain: MPKQIVIAEKHQVAAVFWKDQIQELVVSTGSQQVGDIYLGLVDNILPSIDAAFINIGDTEKNGFIHVSDLGPVRLRRTAGSISELLSPQQRVLVQVMKEPTGNKGPRLTGNISMPGRYMVLMPYGRGVNLSRRINREEERSRLRALAVLIKPPGMGLLVRTEAEDVPEDAIIEDLENLQKQWELVQQQAMTRSAPMLLDRDDDFIKRVLRDMYSSEVNRIVVDTPAGMKRIKQQLMNWDQGRLPEGVLIDCHRESLSILEYFRVNATIREALKPRVDLPSGGYIIIEPTEALTVIDVNSGSFTHSANSRETVLWTNYEAATEIARQLKLRNIGGVIIIDFIDMDSHKDQLQLLEHFNRCLETDKARPQIAQLTELGLVELTRKRQGQNLYELFGQPCPECGGLGHLVELPGEKGFVSLSPTAVNSSIPPRLVEKPILSPPVAKVNDLPKKEEAKISSPLDLLFHPNYQEQGDRDSNRRRRRRRGSEFSEKENIKSVGISRSKGPSPSPTKEKVTGTAPPRRERPSRRVEKTLVPVDVAMTTLEQDIYARMGISPLIKTEYADQDPRSFMVSVVTAGAALEGNTNGSGSLVNAVITTVDNGDNGDNVPSDGLTIVSEVTAPTPVIEQPREETVEPEQVVLPQLDDETPAAPVAEESAPIETKKRPGRRRRRSSAE
- binding [3]: no binding
- binding [4]: no binding

Read-outs that look alike come from different tables or passages of the source. No constants are given. Whether binding was seen depends on the method and setting. In cells and extracts the contact can be indirect. These calls come from enrichment with a bait or labelling near it, and not all partners need be listed. For some of these results: A no says only that the protein was not detected with the bait. Tags and fused reporters may be left off the sequences shown.
